From patent US9050308B2
“Also recorded” adds a separate entry of the source. At least one compound was matched to its structure with a doubt left.

Test system: Hep G2 hepatocarcinoma cells
Assay: Gene expression profiling of Hep G2 cells incubated with EPA, DHA, DPA or mixtures (Illumina HT-12 bead arrays, Ingenuity iReport)
Settings: for top genes up-regulated: symbol for the gene of the same line: 48 hours

CC/C=C\C/C=C\C/C=C\C/C=C\C/C=C\C/C=C\CCC(=O)O [DHA, docosahexaenoic acid]
top genes up-regulated: symbol for the gene of the same line (DHA 40 μM): ¶(EPA); also recorded: ¶(DPA)
ALPP down-regulated: regulation in common with other fatty acid species (DHA 40 μM, DPA 11 μM): ¶(DPA)
CCBE1 down-regulated: regulation in common with other fatty acid species (DHA 40 μM, DPA 11 μM): ¶(DPA)
DDX51 down-regulated: regulation in common with other fatty acid species (DHA 40 μM, DPA 11 μM): ¶(DPA)

CC/C=C\C/C=C\C/C=C\C/C=C\C/C=C\CCCCCC(=O)O [DPA, docosapentaenoic acid]
increase in number of genes affected, cardiovascular physiology category (11 μM vs 1 μM DPA): five-fold
ALPP down-regulated: regulation in common with other fatty acid species (DHA 40 μM, DPA 11 μM): ¶(DHA)
CCBE1 down-regulated: regulation in common with other fatty acid species (DHA 40 μM, DPA 11 μM): ¶(DHA)
DDX51 down-regulated: regulation in common with other fatty acid species (DHA 40 μM, DPA 11 μM): ¶(DHA)
ACADSB (short/branched chain acyl-CoA dehydrogenase) gene expression (DPA 11 μM): upregulates
HMGCR (HMG-CoA reductase) gene expression (DPA 11 μM): downregulated
SQLE (squalene epoxidase) gene expression (DPA 11 μM): downregulated
top genes up-regulated: symbol for the gene of the same line (DPA 11 μM): →¶(EPA) and →¶(DHA) and →♦
CATSPER2 down-regulated: regulation in common with other fatty acid species (EPA 100 μM, DHA 40 μM, DPA 11 μM): →♦
RELB down-regulated: regulation in common with other fatty acid species (EPA 100 μM, DPA 11 μM): ¶(EPA)

CC/C=C\C/C=C\C/C=C\C/C=C\C/C=C\CCCC(=O)O [EPA, eicosapentaenoic acid]
top genes up-regulated: symbol for the gene of the same line (EPA 100 μM): ¶(DPA); also recorded: ¶(DHA)
RELB down-regulated: regulation in common with other fatty acid species (EPA 100 μM, DPA 11 μM): ¶(DPA)
